Reference: patent US20240150466A1 (DYNAMICURE BIOTECHNOLOGY, published 2024)
These are yes or no findings as the source states them, for the method shown. Some results given as binding are weak or reduced against the parent protein; the word gives no strength. For some of these results: Where a sequence is shown, tags or fusion partners need not be part of it. One block for each binder: values may come before it.

Tests used:
[1] = target: T1, mouse IGFBP7 displayed on cells (HEK293T or CHO-K1) (mouse) (UniProt Q61581); experiment: flow cytometry on mIGFBP7-HEK cells (FIG. 13)
T1 sequence (looked up): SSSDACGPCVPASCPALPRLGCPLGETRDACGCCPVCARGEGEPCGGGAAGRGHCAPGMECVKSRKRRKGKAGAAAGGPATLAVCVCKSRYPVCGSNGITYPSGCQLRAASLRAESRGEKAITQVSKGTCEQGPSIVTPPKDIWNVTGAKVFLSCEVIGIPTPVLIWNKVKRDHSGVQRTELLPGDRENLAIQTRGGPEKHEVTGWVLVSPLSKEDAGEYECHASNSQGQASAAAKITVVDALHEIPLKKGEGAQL

[2] = target: T2, human IGFBP7 displayed on HEK293T cells (human, UniProt Q16270 27-282); experiment: flow cytometry on hIGFBP7-HEK cells (FIG. 13)
T2 construct: domain: CD80 transmembrane domain; signal peptide stated as residues 1-26; also called hIGFBP7; hIGFBP7-HEK cells; not shown: linker; CD80 transmembrane domain
T2 sequence: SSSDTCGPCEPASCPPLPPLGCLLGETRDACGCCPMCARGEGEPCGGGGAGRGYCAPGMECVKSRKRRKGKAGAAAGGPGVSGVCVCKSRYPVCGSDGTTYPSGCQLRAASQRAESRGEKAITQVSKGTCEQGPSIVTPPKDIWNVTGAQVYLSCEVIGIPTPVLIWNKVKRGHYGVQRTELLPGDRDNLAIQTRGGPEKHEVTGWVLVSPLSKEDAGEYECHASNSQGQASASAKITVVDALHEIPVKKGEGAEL
Description: After washing with FACS buffer, the cells were incubated with Alexa Fluor 488 conjugated anti-mouse IgG antibody (Jackson ImmunoResearch) for 30 minutes in 4° C. After washing with FACS buffer twice, the samples were acquired in NovoCyte Flow Cytometer and analyzed by NovoExpress software.

[3] = target: T3, human IGFBP7 recombinant protein (human) (UniProt Q16270); experiment: BLI (Octet QKe), biotinylated IGFBP7 on streptavidin biosensors (FIG. 9)
T3 sequence (chain, biotinylated with EZ-LINK NHS-PEG4 biotin in the BLI assays (sites not stated)): T2 sequence

[4] = target: T4, mouse IGFBP7 recombinant protein (mouse) (UniProt Q61581); experiment: BLI (Octet QKe), biotinylated IGFBP7 on streptavidin biosensors (FIG. 10)
T4 sequence (biotinylated with EZ-LINK NHS-PEG4 biotin in the BLI assays (sites not stated), looked up): T1 sequence (looked up)

[5] = target: T3, human IGFBP7 recombinant protein (human); experiment: ELISA
[6] = target: T4, mouse IGFBP7 recombinant protein (mouse); experiment: ELISA
[7] = target: T1, mouse IGFBP7 displayed on cells (HEK293T or CHO-K1) (mouse); experiment: flow cytometry on mouse IGFBP7 displaying HEK293T cells, nanobody 10 ug/ml, APC anti-HIS detection
[8] = target: T3, human IGFBP7 recombinant protein (human); experiment: Octet epitope binning, biotinylated human IGFBP7 on streptavidin tips, antibodies at 10 ug/mL (FIG. 18)
[9] = target: T2, human IGFBP7 displayed on HEK293T cells; experiment: flow cytometry on human IGFBP7 displaying HEK293T cells, nanobody 10 ug/ml, APC anti-HIS detection
Description: Human IGFBP7 and mouse IGFBP7 displaying HEK293T cells were detached by incubation with TrypLE reagents (Thermos Fisher), which preserves the integrity of IGFBP7 on the cell surface. Then the cells were incubated with anti-IGFBP7 nanobodies at 10 μg/ml for 30 minutes in 4° C. After washing by FACS buffer, the cells were incubated with APC conjugated anti-HIS antibodies (Biolegend) for 30 minutes in 4° C. After washing by FACS buffer twice, the samples were acquired in NovoCyte Flow Cytometer and analyzed by NovoExpress software.

[10] = target: T1, mouse IGFBP7 displayed on cells (HEK293T or CHO-K1) (mouse); experiment: FACS on mIGFBP7-expressing CHO-K1 cells (FIG. 5)

binding [1]: binds | binding [2]: binds | binding [3]: binds | binding [4]: binds
B1: bispecific anti-IGFBP7 nanobody Fc-fusion construct A1D4-mIgG2a (bispecific antibody)
chain: VQLQESGGGLVQAGGSLRLSCAASGSLFAIDKWGWYRQVAGNERELVAWRYSPVSINYGDSVKGRFTVSGDSSRKRVYLQMNSLKPDDTAVYRCAAVISGAWYWGQGTQVTVSSVQLQESGGGLVQTGGSLRLSCAASGRSFTFSSYAMGWFRHAPGKEREFLTAITWSGDYTYYTDSVKGRSTISRDNAKNTVYLQLNNLKPEDTAVYYCAAKFSQVSAFFATVSEYEYWGQGTQVTVSS

binding [5]: binds | binding [6]: binds | binding [7]: binds | binding [8]: binds | binding [9]: binds
B2: anti-IGFBP7 nanobody A04 (VHH)
VHH: VQLQESGGGLVQPGGSLRLSCAASGTFTINTYLWYRQPPGKQREFVAAITRGGSINYADSVKGRFTISRDNAKKTVYLQMNSLKPEDTAVYVCNIKAHPNPWGFDNDYWGQGTQVTVSS
notes: Llama nanobody expressed in E. coli as His6-tagged protein; also called A4; A4 VHH; not shown: His6 tag

binding [10]: binds
B3: anti-IGFBP7 nanobody Fc-fusion construct derived from A4 (Fc isotype not told) (Fc fusion, not shown: a dimerising Fc or GST)
chain: B2 VHH
